Source: publication PMC6611794 (Nature Communications, 2019)

How the values were obtained:
[1] = general procedure: Fmoc solid-phase peptide synthesis; TentaGel beads, photocleavable linker; HATU/HOAt/i-Pr2NEt in NMP; DIC/DMAP for esterification; PyBOP/2,4,6-collidine fo; settings: whole synthesis, overall from 29 over 26 steps, by MS and UHPLC, scale of the general procedure several milligram scale of the general procedures
[2] = general procedure: Fmoc solid-phase peptide synthesis; Fmoc-L-Glu(Wang resin)-OAllyl (0.45 or 0.746 mmol/g); TentaGel Macrobeads with photocleavable linker for OBOC; HATU/HOAt/i-Pr2NEt in NMP; DIC/DMAP for esterification; PyBOP/2,4,6-collidine fo; settings: whole synthesis

lysocin E
crude yield [1]: 5.1%
crude mass [2]: 0.25 µg
